PubChem BioAssay AID1224826 | NIAID, 2016

Test: 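Genes that change LPS-induced Tnf promoter activity in mouse macrophages when knocked down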 (primary screen)
Cell system: RAW264.7 G9 macrophages from mouse bearing reporters for p65 (GFP) and the Tnf promoter (mCherry)
Reagent: siRNA pool against mouse genes, 100 nM
Duration: 16 h of LPS stimulation, after 2 days of siRNA transfection
Challenge: bacterial lipopolysaccharide (Salmonella minnesota R595), 10 ng/ml
Measurement: 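Nuclear mCherry signal of the Tnf promoter reporter measured by imaging after background removal, scaled to each plate median and turned into robust z-scores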
Direction: Tnf reporter robust z-score: higher = stronger Tnf promoter reporter signal after LPS
Active means: 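a well counts as active at a score of -1.3 or below (Tlr4 knock-down control median) or above 3 (raised signal); controls and wells holding fewer than 50 cells are excluded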
Calls: active = Tnf reporter clearly lowered or raised; inactive = no clear change in Tnf reporter
Here is a random part of about 17,000 reagents. Over the whole deposit, about 1,110 (6.6%) got an active call. 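Active means lowered or raised reporter signal; replicate intensities are raw and not normalised per plate.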 The numbers tell different reagents against one gene apart. Further read-outs or replicates are left out here. No sequences are given here.

Zbtb24 (zinc finger and BTB domain containing 24) — Tnf reporter robust z-score = 0.49; fewer than 50 cells in well = enough cells in well; Outcome = inactive
Morc1 (microrchidia 1) — Tnf reporter robust z-score = 2.53; fewer than 50 cells in well = enough cells in well; Outcome = inactive
Pcmt1 (protein-L-isoaspartate (D-aspartate) O-methyltransferase 1) — Tnf reporter robust z-score = -0.7; fewer than 50 cells in well = enough cells in well; Outcome = inactive
Ca11 (carbonic anhydrase 11) — Tnf reporter robust z-score = -1.6; fewer than 50 cells in well = enough cells in well; Outcome = active
Cryba4 (crystallin, beta A4) — Tnf reporter robust z-score = 3.03; fewer than 50 cells in well = enough cells in well; Outcome = active
Sars2 (seryl-aminoacyl-tRNA synthetase 2) — Tnf reporter robust z-score = 1.52; fewer than 50 cells in well = enough cells in well; Outcome = inactive
Slc16a7 — Tnf reporter robust z-score = -1.3; fewer than 50 cells in well = enough cells in well; Outcome = active
Or8s8 (olfactory receptor family 8 subfamily S member 8) — Tnf reporter robust z-score = -0.07; fewer than 50 cells in well = enough cells in well; Outcome = inactive
LOC269472 (retired record) — Tnf reporter robust z-score = -1.39; fewer than 50 cells in well = enough cells in well; Outcome = active
Ppp1r11 (protein phosphatase 1, regulatory inhibitor subunit 11) — Tnf reporter robust z-score = -0.59; fewer than 50 cells in well = enough cells in well; Outcome = inactive
Rasgrp2 (RAS, guanyl releasing protein 2) — Tnf reporter robust z-score = -0.66; fewer than 50 cells in well = enough cells in well; Outcome = inactive
Ndst1 (N-deacetylase/N-sulfotransferase (heparan glucosaminyl) 1) — Tnf reporter robust z-score = -1.62; fewer than 50 cells in well = enough cells in well; Outcome = active
Bcl2l13 (BCL2 like 13) — Tnf reporter robust z-score = -0.49; fewer than 50 cells in well = enough cells in well; Outcome = inactive
Dgke (diacylglycerol kinase, epsilon) — Tnf reporter robust z-score = 0.87; fewer than 50 cells in well = enough cells in well; Outcome = inactive
Crabp2 (cellular retinoic acid binding protein II) — Tnf reporter robust z-score = 1.16; fewer than 50 cells in well = enough cells in well; Outcome = inactive
Tnni3 (troponin I, cardiac 3) — Tnf reporter robust z-score = -1.16; fewer than 50 cells in well = enough cells in well; Outcome = inactive
Nat14 (N-acetyltransferase 14) — fewer than 50 cells in well = fewer than 50 cells per well; well left out of calls; Outcome = inactive
Naa15 (N(alpha)-acetyltransferase 15, NatA auxiliary subunit) — Tnf reporter robust z-score = 0.27; fewer than 50 cells in well = enough cells in well; Outcome = inactive
Or1e22 (olfactory receptor family 1 subfamily E member 22) — Tnf reporter robust z-score = -1.2; fewer than 50 cells in well = enough cells in well; Outcome = inactive
Cep55 (centrosomal protein 55) — Tnf reporter robust z-score = 1.59; fewer than 50 cells in well = enough cells in well; Outcome = inactive
Rasal2 (RAS protein activator like 2) #1 — Tnf reporter robust z-score = -1.01; fewer than 50 cells in well = enough cells in well; Outcome = inactive
Rasal2 (RAS protein activator like 2) #2 — Tnf reporter robust z-score = -0.25; fewer than 50 cells in well = enough cells in well; Outcome = inactive
Pi4k2a (phosphatidylinositol 4-kinase type 2 alpha) — Tnf reporter robust z-score = -0.46; fewer than 50 cells in well = enough cells in well; Outcome = inactive
F2 (coagulation factor II) — Tnf reporter robust z-score = 0.9; fewer than 50 cells in well = enough cells in well; Outcome = inactive
Snw1 (SNW domain containing 1) — Tnf reporter robust z-score = 1.89; fewer than 50 cells in well = enough cells in well; Outcome = inactive
Gm16897 (predicted gene, 16897) — fewer than 50 cells in well = fewer than 50 cells per well; well left out of calls; Outcome = inactive
Scp2d1 (SCP2 sterol-binding domain containing 1) — Tnf reporter robust z-score = 1.96; fewer than 50 cells in well = enough cells in well; Outcome = inactive

2 entries from above in another layout:
| Gene | reagent no. | Tnf reporter robust z-score | fewer than 50 cells in well | Outcome |
| --- | --- | --- | --- | --- |
| Rasal2 (RAS protein activator like 2) | 2 | -0.25 | enough cells in well | inactive |
| Pi4k2a (phosphatidylinositol 4-kinase type 2 alpha) | 1 | -0.46 | enough cells in well | inactive |
